According to paper PMC4901443:
Results are given in words; binding and its absence hold for the method and conditions named. Some binding calls cover weakened binding; strength is not graded here.

Sequences of proteins named here, by UniProt entry; tags and fusion partners are left off. Residues count along the entry.
UniProt P12368, residues 1-44: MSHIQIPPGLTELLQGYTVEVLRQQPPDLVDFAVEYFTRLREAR

Biological target: T1, RSP3 (AKAP97), endogenous in axonemes (Chlamydomonas reinhardtii (endogenous in axonemes)) (UniProt P12759)
T1 sequence: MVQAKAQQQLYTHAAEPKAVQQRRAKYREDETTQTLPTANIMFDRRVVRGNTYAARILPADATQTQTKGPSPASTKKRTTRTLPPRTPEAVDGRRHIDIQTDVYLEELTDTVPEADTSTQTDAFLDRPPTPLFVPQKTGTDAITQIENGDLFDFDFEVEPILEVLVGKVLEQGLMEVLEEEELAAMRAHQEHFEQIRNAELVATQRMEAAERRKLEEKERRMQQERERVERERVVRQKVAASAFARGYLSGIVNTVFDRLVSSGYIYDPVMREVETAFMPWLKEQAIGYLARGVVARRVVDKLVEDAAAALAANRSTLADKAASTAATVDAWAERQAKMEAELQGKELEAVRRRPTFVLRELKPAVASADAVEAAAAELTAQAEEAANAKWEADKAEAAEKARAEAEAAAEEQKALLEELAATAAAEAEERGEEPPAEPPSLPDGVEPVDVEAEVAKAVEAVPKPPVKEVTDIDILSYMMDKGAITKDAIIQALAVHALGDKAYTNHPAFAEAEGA
Test: far-Western, overlay or dot blot; axonemes of WT and mutants (pf14, pf15, pf18, pf19, pf20) on SDS-PAGE, blotted on nitrocellulose, overlaid with ~20 μg/ml purified 6His-FAP174 or 6His-RIIa D/D; detected with HRP-conjugated anti-His antibody; only the binder purified

binding: binds
Substance: 6His-tagged RIIa D/D (regulatory subunit RIIa of PKA, dimerization and docking domain, 1–44) (from UniProt P12368 1-44) (domain or fragment)
